In patent publication US20210032312A1 one finds binding data, which are given here for 31 molecules.

Protein sequences, listed by entry. Tags and fused reporters are not part of them. Residues count along the entry.
UniProt P01732, residues 22-182: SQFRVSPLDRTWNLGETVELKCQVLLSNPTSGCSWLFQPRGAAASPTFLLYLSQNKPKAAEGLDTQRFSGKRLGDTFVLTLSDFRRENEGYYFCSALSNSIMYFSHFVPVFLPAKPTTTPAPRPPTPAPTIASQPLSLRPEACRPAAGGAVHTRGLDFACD

Changes are numbered by the printed parent chain. No constants are given. Whether binding was seen depends on the method and setting. Some results given as binding are weak or reduced against the parent protein; the word gives no strength.

The chains are these.
B1: P282ER9P1360_F11 (designed binder)
chain: LPAPKNLVVSRVTEDSARLSWIAPDAAFDSFSIAYVEAELVGEAIQLVVPGSERSYDLTGLKPGTEYWVVILGVKGGNPSNPLGASFTT
B2: P282ER9P1360_H3 (designed binder)
chain: B1 chain with I22T
B3: P282AR9P1356_D3 (designed binder)
chain: LPAPKNLVVSRVTEDSARLSWTRHETSFDSFLIQYRESEKVGEAIVLTVPGSERSYDLTGLKPGTEYTVSIYGVVVEYDAAGNPKYSNPLSAIFTT
B4: P282ER9P1360_H10 (designed binder)
chain: LPAPKNLVVSRVTEDSARLSWTAPDAAFDSFEIYYPEWPFAGEAIGLPVPGSERSYDLTGLKPGTEYFVVIYGVKGGELSEPLTAQFTT
B5: P282ER9P1360_A9 (designed binder)
chain: LPAPKNLVVSRVTEDSARLSWTAPDAAFDSFGILYYEPVDSGEAITLPIPGSERSYDLTGLKPGTEYWVVITGVKGGAPSTPLGAIFTT
B6: P282FR9P1361_A5 (designed binder)
chain: B5 chain with I49V
B7: P282ER9P1360_E4 (designed binder)
chain: B5 chain with I49V, P50L
B8: P282ER9P1360_D11 (designed binder)
chain: B5 chain with I49V, W68F, V70I, T72V, A78Y, T81I, I86A
B9: P282ER9P1360_C4 (designed binder)
chain: B5 chain with L34T, V39N, D40H, S41G, T46S, P48S, I49V, L58P
B10: P282ER9P1360_C8 (designed binder)
chain: B5 chain with I49V, A85T
B11: P282ER9P1360_C6 (designed binder)
chain: B5 chain with P2S
B12: P282ER9P1360_G7 (designed binder)
chain: B5 chain with I49V, F87L
B13: P282ER9P1360_C1 (designed binder)
chain: B5 chain with A23T, I49V
B14: P282ER9P1360_G10 (designed binder)
chain: LPAPKNLVVSRVTEDSARLSWTAPDAAFDSFAIWYVEQHPFGEAIPLFVPGSERSYDLTGLKPGTEYTVGIRGVKGGNFSTPLIAHFTT
B15: P282AR9P1356_H1 (designed binder)
chain: LPAPKNLVVSRVTEDSARLSWIPNPSSFDSFLIQYQESEKVGEAIVLTVPGSERSYDLTGLKPGTEYTVSIYGVDVVFDPVGFPSHSNPLSAIFTT
B16: P282FR9P1361_A3 (designed binder)
chain: LPAPKNLVVSRVTEDSARLSWTAPDAAFDSFDIWYAEYGYPGEAIVLTVPGSERSYDLTGLKPGTEYDVAIVGVKGGNRSYPLSAIFTT
B17: P282DR9P1359_H5 (designed binder)
chain: LPAPKNLVVSRVTEDSARLSWTAPDAAFDSFNIAYPEALHPGYGEAIVLTVPGSERSYDLTGLKPGTEYFVVIYGVKGGTNSEPLSAIFTT
B18: P282DR9P1359_E3 (designed binder)
chain: LPAPKNLVVSRVTEDSARLSWTAPDAAFDSFAIAYPELPLGGEAIVLTVPGSERSYDLTGLKPGTEYFVIIYGVKGGVESFPLSAIFTT
B19: P282DR9P1359_F11 (designed binder)
chain: B18 chain with A32D, A34F, L40I, G41H, F68W, I70N, Y72T, V78D, E79F, F81W
B20: P282DR9P1359_E8 (designed binder)
chain: B18 chain with A32Q, L38W, L40V, G41I, F68W, Y72Q, V78Y, E79T, F81W
B21: P282DR9P1359_F3 (designed binder)
chain: B18 chain with A32Y, A34T, L38W, L40V, G41Q, F68W, V78T, F81E
B22: P282DR9P1359_F5 (designed binder)
chain: B18 chain with A32Q, L38W, L40P, G41P, Y72Q, F81W
B23: P282DR9P1359_E5 (designed binder)
chain: B18 chain with A34S, L38W, L40V, G41P, V78L, E79Y, F81A
B24: P282DR9P1359_E6 (designed binder)
chain: B18 chain with A32W, L38W, L40V, G41Q, I70V, Y72Q, V78T, E79P, F81W
B25: P282DR9P1359_F6 (designed binder)
chain: B18 chain with A32D, L38W, L40T, G41T, I70V, Y72W, V78D, E79H, F81A
B26: P282DR9P1359_F7 (designed binder)
chain: B18 chain with L38W, L40P, G41Q, I70V, V78S, E79Y, F81A
B27: P282DR9P1359_G7 (designed binder)
chain: LPAPKNLVVSRVTEDSARLSWTAPDAAFDSFAITYIEKEHIEDGEAIVLTVPGSERSYDLTGLKPGTEYWVPIWGVKGGANSWPLSAIFTT
B28: P282AR9P1356_B9 (designed binder)
chain: LPAPKNLVVSRVTEDSARLSWPEGDRPFFDSFLIQYQESEKVGEAIVLTVPGSERSYDLTGLKPGTEYTVSIYGVDVKWEGNRPVASNPLSAIFTT
B29: P282ER9P1360_H2 (designed binder)
chain: LPAPKNLVVSRVTEDSARLSWTAPDAAFDSFSIAYVEAELVGEAIQLVVPGSERSYDLTGLKPGTEYWVVILGVKGGNPSNPLGASFTTT
B30: P282DR9P1359_F2 (designed binder)
chain: LPAPKNLVVSRVTEDSARLSWTAPDAAFDSFNIAYPEALHPGYGEAIVLTVPGSERSYDLTGLKPGTEYWVIIGGVKGGQKSWPLSAIFTTGGHHHDHH
B31: P282DR9P1359_G4 (designed binder)
chain: LPAPKNLVVSRVTEDSARLSWTAPDAAFDSFEIAYPEWPPPGEAIVLTVPGSERSYDLTGLKPGPEYFVVIQGVKGGDPSFPLSAIFTTGGNHHHHH

The test concerns the target recombinant human CD8 alpha fused to Fc fragment of human IgG1 (human) (UniProt P01732). Put plainly: ELISA, biotinylated CD8W7 or CD8W13. (In general: In an ELISA, binding on a coated surface is turned into a signal by an enzyme label.)
In the case of B1, the binding result is given as “binds”.

Regarding B2, the binding entry is listed as “binds”.

Regarding B3, the binding result is “binds”.

Take B4: the binding entry was “binds”.

As to B5, the binding result is on record as “binds”.

For the molecule B6, the binding result was “binds”.

Regarding B7, the binding entry is “binds”.

B8: the binding entry was “binds”.

Consider B9, for which the binding result is “binds”.

Regarding B10, the binding entry is reported as “binds”.

B11: the binding entry is recorded as “binds”.

For B12, the binding result is “binds”.

With B13, the binding result is given as “binds”.

For B14, the binding result is recorded as “binds”.

In the case of B15, the binding entry is recorded as “binds”.

In the case of B16, the binding result is “binds”.

For the molecule B17, the binding entry is on record as “binds”.

As to B18, the binding result was “binds”.

In the case of B19, the binding entry is on record as “binds”.

Take B20: the binding result was “binds”.

On to B21, for which the binding entry was “binds”.

For the molecule B22, the binding result was “binds”.

In the case of B23, the binding result was “binds”.

For the molecule B24, the binding result is on record as “binds”.

Take B25: the binding entry is listed as “binds”.

For B26, the binding result was “binds”.

Regarding B27, the binding result is recorded as “binds”.

Regarding B28, the binding entry was “binds”.

For B29, the binding result was “binds”.

Regarding B30, the binding result is listed as “binds”.

For the molecule B31, the binding entry is recorded as “binds”.
